Test results published in publication PMC12527917.
Results are given in words; binding and its absence hold for the method and conditions named. Some results given as binding are weak or reduced against the parent protein; the word gives no strength.

Chains of the proteins cited; added tags and fusions are not shown.
UniProt Q9Y496: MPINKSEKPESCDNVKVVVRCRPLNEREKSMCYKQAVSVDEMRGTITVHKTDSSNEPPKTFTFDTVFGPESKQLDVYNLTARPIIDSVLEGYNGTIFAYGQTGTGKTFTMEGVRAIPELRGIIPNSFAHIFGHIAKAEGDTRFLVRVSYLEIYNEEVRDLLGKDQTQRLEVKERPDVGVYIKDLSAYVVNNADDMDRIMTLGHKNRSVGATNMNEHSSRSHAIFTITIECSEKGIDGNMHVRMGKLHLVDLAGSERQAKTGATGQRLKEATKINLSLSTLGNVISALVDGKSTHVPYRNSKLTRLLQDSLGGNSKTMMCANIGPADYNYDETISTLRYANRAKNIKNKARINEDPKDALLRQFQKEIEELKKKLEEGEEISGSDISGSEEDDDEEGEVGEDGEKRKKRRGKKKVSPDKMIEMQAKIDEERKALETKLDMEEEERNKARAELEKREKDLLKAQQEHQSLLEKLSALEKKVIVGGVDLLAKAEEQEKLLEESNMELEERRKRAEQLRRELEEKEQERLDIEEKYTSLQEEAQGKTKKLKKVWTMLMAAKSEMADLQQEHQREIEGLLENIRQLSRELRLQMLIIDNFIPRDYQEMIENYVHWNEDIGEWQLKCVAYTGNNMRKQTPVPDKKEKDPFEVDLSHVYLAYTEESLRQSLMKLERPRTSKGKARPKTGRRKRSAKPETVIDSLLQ

Assays:
[1] = target: T1, Kif3B (human kinesin-2 motor subunit), full length (human) (UniProt O15066); experiment: mass photometry; complexes diluted to 1–100 nM in buffer A; Refeyn OneMP; both purified
T1 sequence: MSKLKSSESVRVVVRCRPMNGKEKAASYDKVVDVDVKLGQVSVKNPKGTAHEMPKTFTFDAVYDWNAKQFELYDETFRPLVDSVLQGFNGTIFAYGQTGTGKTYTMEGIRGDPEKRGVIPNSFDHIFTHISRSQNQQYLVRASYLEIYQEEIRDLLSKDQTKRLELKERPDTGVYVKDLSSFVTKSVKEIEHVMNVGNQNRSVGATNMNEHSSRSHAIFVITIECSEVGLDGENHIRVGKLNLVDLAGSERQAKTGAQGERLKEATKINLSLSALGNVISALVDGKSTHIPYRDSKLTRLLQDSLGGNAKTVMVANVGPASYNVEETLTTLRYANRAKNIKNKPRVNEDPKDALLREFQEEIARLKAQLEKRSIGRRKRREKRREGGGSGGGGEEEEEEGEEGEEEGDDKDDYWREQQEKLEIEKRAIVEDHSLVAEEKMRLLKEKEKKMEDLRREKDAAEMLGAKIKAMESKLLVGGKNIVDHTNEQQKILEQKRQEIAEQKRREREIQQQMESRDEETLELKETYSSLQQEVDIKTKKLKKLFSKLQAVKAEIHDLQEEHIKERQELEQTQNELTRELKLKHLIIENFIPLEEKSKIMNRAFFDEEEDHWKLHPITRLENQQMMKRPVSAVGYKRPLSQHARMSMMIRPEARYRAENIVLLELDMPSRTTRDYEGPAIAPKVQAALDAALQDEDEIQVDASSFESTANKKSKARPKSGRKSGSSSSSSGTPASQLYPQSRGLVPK

[2] = target: T1, Kif3B (human kinesin-2 motor subunit), full length (human); experiment: SEC; motor subunits coexpressed in Sf9, purified through the ZZ tag of Kif3B/C on IgG Sepharose, TEV elution, Superose 6 Increase 3.2/300 in buffer A (50 mM Tris-HCl pH 7.5, 150 mM K-acetate, 2 mM Mg-acetate, 5% glycerol, 1 mM DTT, 0.2 mM Mg-ATP); SDS-PAGE of peak fraction; both purified
[3] = target: T2, Kif3C (human kinesin-2 motor subunit), full length (human) (UniProt O14782); experiment: as above
T2 sequence: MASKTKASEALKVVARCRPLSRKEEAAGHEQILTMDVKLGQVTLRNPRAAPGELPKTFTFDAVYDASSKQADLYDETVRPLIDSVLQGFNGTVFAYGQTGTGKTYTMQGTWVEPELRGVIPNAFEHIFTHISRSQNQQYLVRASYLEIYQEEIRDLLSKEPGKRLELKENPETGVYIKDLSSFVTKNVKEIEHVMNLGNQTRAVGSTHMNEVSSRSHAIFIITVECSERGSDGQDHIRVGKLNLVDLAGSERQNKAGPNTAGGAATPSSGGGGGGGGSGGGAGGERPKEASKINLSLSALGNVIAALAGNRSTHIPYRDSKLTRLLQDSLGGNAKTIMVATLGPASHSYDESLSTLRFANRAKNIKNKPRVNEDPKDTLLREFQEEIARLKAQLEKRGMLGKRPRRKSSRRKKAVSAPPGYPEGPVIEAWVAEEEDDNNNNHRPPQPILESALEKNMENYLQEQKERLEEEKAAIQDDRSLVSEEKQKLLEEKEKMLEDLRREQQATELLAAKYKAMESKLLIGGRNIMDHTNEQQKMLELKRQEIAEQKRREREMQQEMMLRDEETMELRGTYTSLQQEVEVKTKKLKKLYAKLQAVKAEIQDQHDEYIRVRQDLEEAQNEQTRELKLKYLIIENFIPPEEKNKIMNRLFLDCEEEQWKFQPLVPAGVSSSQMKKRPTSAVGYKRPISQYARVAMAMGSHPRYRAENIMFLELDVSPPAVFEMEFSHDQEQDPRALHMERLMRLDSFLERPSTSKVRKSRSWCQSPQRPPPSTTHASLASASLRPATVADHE

Measured: binding

Kif3A (human kinesin-2 motor subunit), full length (from UniProt Q9Y496 1-699)
binds: all assays above
